Drawing on article PMC10290057, this text covers binding for three molecules.

Sequences of proteins named here, by UniProt entry; tags and fusion partners are left off.
UniProt P11387: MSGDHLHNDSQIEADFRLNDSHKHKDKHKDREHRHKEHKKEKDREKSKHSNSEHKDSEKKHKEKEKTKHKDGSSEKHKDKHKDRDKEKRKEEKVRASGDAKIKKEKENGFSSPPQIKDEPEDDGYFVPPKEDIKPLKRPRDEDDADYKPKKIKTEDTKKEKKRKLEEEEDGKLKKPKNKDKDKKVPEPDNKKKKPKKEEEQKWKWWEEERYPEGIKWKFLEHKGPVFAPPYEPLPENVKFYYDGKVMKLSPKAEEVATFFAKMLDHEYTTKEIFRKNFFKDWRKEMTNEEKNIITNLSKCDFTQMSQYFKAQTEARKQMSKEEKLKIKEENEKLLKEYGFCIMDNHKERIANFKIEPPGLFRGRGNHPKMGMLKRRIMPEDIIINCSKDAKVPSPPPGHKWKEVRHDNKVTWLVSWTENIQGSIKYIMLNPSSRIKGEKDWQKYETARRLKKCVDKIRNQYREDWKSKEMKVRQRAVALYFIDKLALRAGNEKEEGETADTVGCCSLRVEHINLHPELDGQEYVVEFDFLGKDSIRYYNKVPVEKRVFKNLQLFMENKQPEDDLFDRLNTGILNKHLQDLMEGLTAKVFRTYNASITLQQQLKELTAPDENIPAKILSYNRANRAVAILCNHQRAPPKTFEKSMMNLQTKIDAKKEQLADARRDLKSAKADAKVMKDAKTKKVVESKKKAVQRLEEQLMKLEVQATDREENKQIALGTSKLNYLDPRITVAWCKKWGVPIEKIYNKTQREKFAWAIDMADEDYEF
UniProt Q92466: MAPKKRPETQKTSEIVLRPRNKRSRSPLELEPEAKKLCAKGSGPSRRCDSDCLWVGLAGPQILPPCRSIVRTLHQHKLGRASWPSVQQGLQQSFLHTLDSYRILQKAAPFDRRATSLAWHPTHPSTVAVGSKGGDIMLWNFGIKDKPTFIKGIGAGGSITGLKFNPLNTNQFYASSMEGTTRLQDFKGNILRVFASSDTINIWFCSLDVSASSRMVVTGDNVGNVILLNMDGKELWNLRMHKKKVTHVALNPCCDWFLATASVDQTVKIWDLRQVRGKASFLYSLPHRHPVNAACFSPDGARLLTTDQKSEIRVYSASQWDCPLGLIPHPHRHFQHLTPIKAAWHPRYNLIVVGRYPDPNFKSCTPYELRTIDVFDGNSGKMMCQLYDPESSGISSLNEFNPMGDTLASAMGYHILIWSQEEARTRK

This test concerns the target N-terminally 6×His-tagged TOP1 (topoisomerase I), full length (human) (UniProt P11387). Put plainly: affinity purification with mass spectrometry; 6×His-TOP1 transiently expressed in HCT116 cells, TOP1 protein complexes purified by His pull-down, LC-MS/MS; empty vector sample as control.

Results are given in words; binding and its absence hold for the method and conditions named. Binding seen in cells or lysates may run through a third protein. These calls come from enrichment with a bait or labelling near it, and not all partners need be listed.

For the molecule DDB2 (from UniProt Q92466 1-427), the binding entry is on record as “binds”.

B1: DCAF13, endogenous (protein, UniProt Q9NV06 1-445)
chain: MKVKMLSRNPDNYVRETKLDLQRVPRNYDPALHPFEVPREYIRALNATKLERVFAKPFLASLDGHRDGVNCLAKHPEKLATVLSGACDGEVRIWNLTQRNCIRTIQAHEGFVRGICTRFCGTSFFTVGDDKTVKQWKMDGPGYGDEEEPLHTILGKTVYTGIDHHWKEAVFATCGQQVDIWDEQRTNPICSMTWGFDSISSVKFNPIETFLLGSCASDRNIVLYDMRQATPLKKVILDMRTNTICWNPMEAFIFTAANEDYNLYTFDMRALDTPVMVHMDHVSAVLDVDYSPTGKEFVSASFDKSIRIFPVDKSRSREVYHTKRMQHVICVKWTSDSKYIMCGSDEMNIRLWKANASEKLGVLTSREKAAKDYNQKLKEKFQHYPHIKRIARHRHLPKSIYSQIQEQRIMKEARRRKEVNRIKHSKPGSVPLVSEKKKHVVAVVK
Consider B1, for which the binding result is “binds”.

B2: DCAF7 (protein, UniProt P61962 1-342)
chain: MSLHGKRKEIYKYEAPWTVYAMNWSVRPDKRFRLALGSFVEEYNNKVQLVGLDEESSEFICRNTFDHPYPTTKLMWIPDTKGVYPDLLATSGDYLRVWRVGETETRLECLLNNNKNSDFCAPLTSFDWNEVDPYLLGTSSIDTTCTIWGLETGQVLGRVNLVSGHVKTQLIAHDKEVYDIAFSRAGGGRDMFASVGADGSVRMFDLRHLEHSTIIYEDPQHHPLLRLCWNKQDPNYLATMAMDGMEVVILDVRVPCTPVARLNNHRACVNGIAWAPHSSCHICTAADDHQALIWDIQQMPRAIEDPILAYTAEGEINNVQWASTQPDWIAICYNNCLEILRV
For the molecule B2, the binding entry is “binds”.
